For the assay, the system named is B6D2F1 mice, nontumored toxicity test, survival. Put plainly: NCI In Vivo Anticancer Drug Screen. Data for tumor model Nontumored Animals (Toxicity Test) in B6D2F1 (BDF1) mice.
Setting [1] is: dose: 1.0 mg/kg/injection, schedule: Q01DX001 (ip), vehicle: saline.
[2] abbreviates: dose: 10.0 mg/kg/injection, schedule: Q01DX001 (ip), vehicle: saline.

Values are animals surviving of animals treated; these mice carried no tumour. Survivors were counted at the toxicity check, usually on the fifth day, unless a day is given; later deaths do not show. Schedules are NCI's codes, read here as Q, the interval in days (D) or hours (H), X, the number of doses. Counts like (3×) stand for listed records that agree. Some doses were run more than once; the results are listed from low to high.

For the compound `O=C1N[C@@H]([C@H]2CC[C@H](Cl)CN2)C(=O)N[C@H]1[C@H]1CC[C@H](Cl)CN1`, the survivor count runs as follows: (dose: 0.25 mg/kg/injection, schedule: Q03HX008 (ip), vehicle: saline) 8 of 8; (dose: 0.25 mg/kg/injection, schedule: Q03HX016 (ip), vehicle: saline) 8 of 8; (dose: 0.5 mg/kg/injection, schedule: Q01DX009 (ip), vehicle: saline) 8 of 8; (dose: 0.5 mg/kg/injection, schedule: Q01DX009 (sc), vehicle: saline) 8 of 8; (dose: 0.5 mg/kg/injection, schedule: Q03HX008 (ip), vehicle: saline) 8 of 8; (dose: 0.5 mg/kg/injection, schedule: Q03HX016 (ip), vehicle: saline) 8 of 8. Further, the survivor count under setting [1] is recorded as 8 of 8; the survivor count (dose: 1.0 mg/kg/injection, schedule: Q01DX009 (ip), vehicle: saline) is reported as 8 of 8; the survivor count (dose: 1.0 mg/kg/injection, schedule: Q01DX009 (sc), vehicle: saline) was 8 of 8; the survivor count (dose: 1.0 mg/kg/injection, schedule: Q03HX008 (ip), vehicle: saline) is recorded as 8 of 8; the survivor count (dose: 1.0 mg/kg/injection, schedule: Q03HX016 (ip), vehicle: saline) is listed as 8 of 8; the survivor count (dose: 1.0 mg/kg/injection, schedule: Q04DX003 (ip), vehicle: saline) is listed as 8 of 8. The survivor count (dose: 1.5 mg/kg/injection, schedule: Q01DX009 (ip), vehicle: saline) is 10 of 10; the survivor count (dose: 2.0 mg/kg/injection, schedule: Q01DX001 (ip), vehicle: saline) was 8 of 8; the survivor count (dose: 2.0 mg/kg/injection, schedule: Q01DX001 (sc), vehicle: saline) is on record as 8 of 8; the survivor count (dose: 2.0 mg/kg/injection, schedule: Q01DX009 (ip), vehicle: saline) is 8 of 8; the survivor count (dose: 2.0 mg/kg/injection, schedule: Q01DX009 (oral), vehicle: saline) is 8 of 8; the survivor count (dose: 2.0 mg/kg/injection, schedule: Q01DX009 (sc), vehicle: saline) was 8 of 8. Moreover, the survivor count (dose: 2.0 mg/kg/injection, schedule: Q03HX008 (ip), vehicle: saline) is 7 of 8; the survivor count (dose: 2.0 mg/kg/injection, schedule: Q03HX016 (ip), vehicle: saline) is listed as 8 of 8; the survivor count (dose: 2.0 mg/kg/injection, schedule: Q04DX003 (ip), vehicle: saline) was 8 of 8; the survivor count (dose: 2.0 mg/kg/injection, schedule: Q08DX002 (ip), vehicle: saline) was 8 of 8; the survivor count (dose: 2.2 mg/kg/injection, schedule: Q01DX009 (ip), vehicle: saline) is listed as 10 of 10; the survivor count (dose: 2.6 mg/kg/injection, schedule: Q01DX009 (ip), vehicle: saline) is 10 of 10. Besides, the survivor count (dose: 4.0 mg/kg/injection, schedule: Q01DX001 (ip), vehicle: saline) is 8 of 8; the survivor count (dose: 4.0 mg/kg/injection, schedule: Q01DX001 (oral), vehicle: saline) is reported as 8 of 8; the survivor count (dose: 4.0 mg/kg/injection, schedule: Q01DX001 (sc), vehicle: saline) was 8 of 8; the survivor count (dose: 4.0 mg/kg/injection, schedule: Q01DX009 (ip), vehicle: saline) is 10 of 10 and 8 of 8; the survivor count (dose: 4.0 mg/kg/injection, schedule: Q01DX009 (oral), vehicle: saline) was 8 of 8; the survivor count (dose: 4.0 mg/kg/injection, schedule: Q01DX009 (sc), vehicle: saline) was 8 of 8. Besides, the survivor count runs as follows: (dose: 4.0 mg/kg/injection, schedule: Q04DX003 (ip), vehicle: saline) 8 of 8; (dose: 4.0 mg/kg/injection, schedule: Q08DX002 (ip), vehicle: saline) 8 of 8; (dose: 4.4 mg/kg/injection, schedule: Q01DX001 (ip), vehicle: saline) 10 of 10 (2×); (dose: 6.7 mg/kg/injection, schedule: Q01DX001 (ip), vehicle: saline) 10 of 10 (2×); (dose: 8.0 mg/kg/injection, schedule: Q01DX001 (ip), vehicle: saline) 8 of 8; (dose: 8.0 mg/kg/injection, schedule: Q01DX001 (oral), vehicle: saline) 8 of 8. For the same compound, the survivor count was 8 of 8 (dose: 8.0 mg/kg/injection, schedule: Q01DX001 (sc), vehicle: saline); 7 of 8 (dose: 8.0 mg/kg/injection, schedule: Q01DX009 (oral), vehicle: saline); 8 of 8 (dose: 8.0 mg/kg/injection, schedule: Q04DX003 (ip), vehicle: saline); 8 of 8 (dose: 8.0 mg/kg/injection, schedule: Q08DX002 (ip), vehicle: saline); 9 of 10 and 10 of 10 under setting [2]; 6 of 8 (dose: 16.0 mg/kg/injection, schedule: Q01DX001 (ip), vehicle: saline). Besides, the survivor count is, setting by setting: (dose: 16.0 mg/kg/injection, schedule: Q01DX001 (oral), vehicle: saline) 8 of 8; (dose: 16.0 mg/kg/injection, schedule: Q01DX001 (sc), vehicle: saline) 8 of 8; (dose: 16.0 mg/kg/injection, schedule: Q01DX009 (oral), vehicle: saline) 8 of 8; (dose: 16.0 mg/kg/injection, schedule: Q08DX002 (ip), vehicle: saline) 6 of 8; (dose: 32.0 mg/kg/injection, schedule: Q01DX001 (oral), vehicle: saline) 8 of 8; (dose: 125.0 micrograms/kg/injection, schedule: Q03HX024 (ip), vehicle: saline) 8 of 8. The survivor count is 7 of 8 (dose: 250.0 micrograms/kg/injection, schedule: Q03HX024 (ip), vehicle: saline); 8 of 8 (dose: 500.0 micrograms/kg/injection, schedule: Q03HX024 (ip), vehicle: saline); 8 of 8 (dose: 1000.0 micrograms/kg/injection, schedule: Q03HX024 (ip), vehicle: saline).

For `O=NN(CCCl)C(=O)NC1CCCCC1`, the survivor count reads like this: (dose: 2.7 mg/kg/injection, schedule: Q01DX001 (ip), vehicle: saline + alcohol) 10 of 10; (dose: 4.7 mg/kg/injection, schedule: Q01DX001 (ip), vehicle: saline + alcohol) 10 of 10; (dose: 5.4 mg/kg/injection, schedule: Q04DX003 (ip), vehicle: other) 5 of 5; (dose: 9.0 mg/kg/injection, schedule: Q04DX003 (ip), vehicle: other) 5 of 5; (dose: 9.5 mg/kg/injection, schedule: Q01DX001 (ip), vehicle: saline + alcohol) 10 of 10; (dose: 15.0 mg/kg/injection, schedule: Q04DX003 (ip), vehicle: other) 5 of 5. In addition, the survivor count by setting is: (dose: 18.9 mg/kg/injection, schedule: Q01DX001 (ip), vehicle: saline + alcohol) 10 of 10; (dose: 21.0 mg/kg/injection, schedule: Q01DX001 (ip), vehicle: carboxymethylcellulose (CMC)) 10 of 10; (dose: 25.0 mg/kg/injection, schedule: Q04DX003 (ip), vehicle: other) 5 of 5; (dose: 32.0 mg/kg/injection, schedule: Q01DX001 (ip), vehicle: carboxymethylcellulose (CMC)) 10 of 10; (dose: 37.8 mg/kg/injection, schedule: Q01DX001 (ip), vehicle: saline + alcohol) 10 of 10; (dose: 41.7 mg/kg/injection, schedule: Q04DX003 (ip), vehicle: other) 5 of 5. The survivor count by setting is: (dose: 48.0 mg/kg/injection, schedule: Q01DX001 (ip), vehicle: carboxymethylcellulose (CMC)) 10 of 10; (dose: 50.0 mg/kg/injection, schedule: Q01DX001 (ip), vehicle: carboxymethylcellulose (CMC)) 10 of 10; (dose: 75.7 mg/kg/injection, schedule: Q01DX001 (ip), vehicle: saline + alcohol) 10 of 10.

Take `COC1=C2C[C@H](C)C[C@H](OC)[C@H](O)[C@@H](C)/C=C(\C)[C@H](OC(N)=O)[C@H](OC)/C=C\C=C(/C)C(=O)NC(=C(/C=N/N3CCN(C)CC3)C1=O)C2=O`: the survivor count is on record as 2 of 2 under setting [1]; 2 of 2 under setting [2]; 2 of 2 (dose: 100.0 mg/kg/injection, schedule: Q01DX001 (ip), vehicle: saline).

These data come from PubChem BioAssay AID186 (DTP/NCI, 2004).
